From article PMC12025923 (Cells, 2025) come the findings set out here.

For test [1], the target named is T1, GFP-SLP76 (human) (UniProt Q13094).
T1 sequence: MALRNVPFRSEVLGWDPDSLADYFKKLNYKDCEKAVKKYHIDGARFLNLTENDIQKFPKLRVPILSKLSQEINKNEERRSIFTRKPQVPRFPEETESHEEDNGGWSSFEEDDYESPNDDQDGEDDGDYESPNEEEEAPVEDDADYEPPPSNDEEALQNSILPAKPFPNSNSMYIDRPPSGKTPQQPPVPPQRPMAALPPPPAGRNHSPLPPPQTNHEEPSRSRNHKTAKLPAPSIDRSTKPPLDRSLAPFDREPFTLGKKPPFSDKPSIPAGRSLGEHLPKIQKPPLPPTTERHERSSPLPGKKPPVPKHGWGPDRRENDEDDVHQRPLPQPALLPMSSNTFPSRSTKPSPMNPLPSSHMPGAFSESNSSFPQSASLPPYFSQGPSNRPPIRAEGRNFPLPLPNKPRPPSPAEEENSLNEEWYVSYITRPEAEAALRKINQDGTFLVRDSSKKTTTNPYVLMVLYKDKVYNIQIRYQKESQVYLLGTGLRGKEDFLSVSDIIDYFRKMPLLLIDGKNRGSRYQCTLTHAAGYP
Briefly: co-IP; as a2 but in human HEK293T cells (Figure S2G,H).

The target of test [2] is T1, GFP-SLP76 (human). Kind of test: co-IP; N2a cells co-transfected with 14-3-3γ-GFP (wt or R57C) and 3xHA-TH (1:2), or GFP-SLP76 and 14-3-3γ-3xHA (wt or R57C) (2:1); lysate with protease and phosphatase inhibitors, GST-tagged GFP-nanobody and Glutathione Sepharose 4B, 3 h at 4 °C; blot for GFP and HA.
Test [3] concerns the target T2, wild-type 14-3-3γ-GFP (human) (UniProt P61981).
T2 sequence: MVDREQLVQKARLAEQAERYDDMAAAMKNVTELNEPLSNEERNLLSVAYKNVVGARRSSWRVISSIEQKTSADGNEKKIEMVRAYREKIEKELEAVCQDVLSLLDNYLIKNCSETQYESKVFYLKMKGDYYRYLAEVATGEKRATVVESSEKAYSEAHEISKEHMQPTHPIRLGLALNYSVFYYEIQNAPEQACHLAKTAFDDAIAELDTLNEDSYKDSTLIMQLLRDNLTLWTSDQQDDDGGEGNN
Kind of test: co-IP; N2a cells co-transfected with wt 14-3-3γ-GFP and wt or mutant 14-3-3γ-3xHA (1:1); lysate (50 mM Tris-HCl pH 8.0, 150 mM NaCl, 0.6% Triton X-100, 0.2% glycerol) with GST-tagged GFP-nanobody and Glutathione Sepharose 4B, overnight at 4 °C; blot for GFP and HA.

Results are given in words; binding and its absence hold for the method and conditions named. In cells and extracts the contact can be indirect. Some results given as binding are weak or reduced against the parent protein; the word gives no strength. Sequences can lack the tags named with a protein.

B1: wild-type 14-3-3γ-3xHA (protein, UniProt P61981 1-247)
chain: MVDREQLVQKARLAEQAERYDDMAAAMKNVTELNEPLSNEERNLLSVAYKNVVGARRSSWRVISSIEQKTSADGNEKKIEMVRAYREKIEKELEAVCQDVLSLLDNYLIKNCSETQYESKVFYLKMKGDYYRYLAEVATGEKRATVVESSEKAYSEAHEISKEHMQPTHPIRLGLALNYSVFYYEIQNAPEQACHLAKTAFDDAIAELDTLNEDSYKDSTLIMQLLRDNLTLWTSDQQDDDGGEGNN
With B1, the binding entry (in the test with GFP-SLP76 (human) [1]; in the test with GFP-SLP76 (human) [2]; in test [3]) was “binds” each time.

B2: 14-3-3γ-R132C-3xHA (protein, UniProt P61981 1-247)
chain: MVDREQLVQKARLAEQAERYDDMAAAMKNVTELNEPLSNEERNLLSVAYKNVVGARRSSWRVISSIEQKTSADGNEKKIEMVRAYREKIEKELEAVCQDVLSLLDNYLIKNCSETQYESKVFYLKMKGDYYCYLAEVATGEKRATVVESSEKAYSEAHEISKEHMQPTHPIRLGLALNYSVFYYEIQNAPEQACHLAKTAFDDAIAELDTLNEDSYKDSTLIMQLLRDNLTLWTSDQQDDDGGEGNN
Turning to B2, the binding result in test [3] is reported as “binds”.

B3: 14-3-3γ-R57G-3xHA (protein, UniProt P61981 1-247)
chain: MVDREQLVQKARLAEQAERYDDMAAAMKNVTELNEPLSNEERNLLSVAYKNVVGARGSSWRVISSIEQKTSADGNEKKIEMVRAYREKIEKELEAVCQDVLSLLDNYLIKNCSETQYESKVFYLKMKGDYYRYLAEVATGEKRATVVESSEKAYSEAHEISKEHMQPTHPIRLGLALNYSVFYYEIQNAPEQACHLAKTAFDDAIAELDTLNEDSYKDSTLIMQLLRDNLTLWTSDQQDDDGGEGNN
Take B3: the binding result in test [3] is “binds”.

B4: 14-3-3γ-Y133S-3xHA (protein, UniProt P61981 1-247)
chain: MVDREQLVQKARLAEQAERYDDMAAAMKNVTELNEPLSNEERNLLSVAYKNVVGARRSSWRVISSIEQKTSADGNEKKIEMVRAYREKIEKELEAVCQDVLSLLDNYLIKNCSETQYESKVFYLKMKGDYYRSLAEVATGEKRATVVESSEKAYSEAHEISKEHMQPTHPIRLGLALNYSVFYYEIQNAPEQACHLAKTAFDDAIAELDTLNEDSYKDSTLIMQLLRDNLTLWTSDQQDDDGGEGNN
Take B4: the binding entry in test [3] is on record as “binds”.

B5: 14-3-3γ-R57C-3xHA (protein, UniProt P61981 1-247)
chain: MVDREQLVQKARLAEQAERYDDMAAAMKNVTELNEPLSNEERNLLSVAYKNVVGARCSSWRVISSIEQKTSADGNEKKIEMVRAYREKIEKELEAVCQDVLSLLDNYLIKNCSETQYESKVFYLKMKGDYYRYLAEVATGEKRATVVESSEKAYSEAHEISKEHMQPTHPIRLGLALNYSVFYYEIQNAPEQACHLAKTAFDDAIAELDTLNEDSYKDSTLIMQLLRDNLTLWTSDQQDDDGGEGNN
For the molecule B5, the binding result in test [3] is listed as “binds”.
